According to patent US20090118225A1, “1-Methyl Nicotinamide and Derivatives for Treatment of Gastric Injury” (Cortria Corporation, priority 2007, published 2009):

Tests used:
[1] = system: ethanol-induced gastric lesions; experiment: Ethanol-induced gastric lesion model; format: in vivo, Male Wistar rats; conditions: indomethacin 5 mg/kg i.p., SC-560 5 mg/kg i.g. or rofecoxib 10 mg/kg i.g.; versus no inhibitor
Protocol: (§1) Male Wistar rats, weighing 180-220 grams were fasted for 24 hours before subjecting to experimentation were employed in all studies. The animals were divided into groups for the following types of induced gastric lesions: ethanol-; aspirin (acetylsalicylic acid; ASA)-; stress-; and ischemia-reperfusion (I/R)-induced gastric lesions. In the first group, gastric lesions were produced by intragastric (i.g.) application of ethanol (75%), in the second group by i.g. application of acidified ASA (125 mg/kg), in the third group by animal exposure to 3.5 hours of water immersion (and restraint stress (WRS), in the fourth group by ischemia (by clamping celiac artery for 30 minutes followed by release of the clamp (reperfusion for 3 hours) (I/R).
(§2) The following experiments were designed to assess the therapeutic effect of 1-MNA on induced gastric lesions. […]
(§3) To assess gastric blood flow (GBF) laser Doppler flowmeter (Laserflo, model BPM 403A, Blood Perfusion Monitor, Vasamedics, St. Paul, Minn., USA) was used. […] Blood flow was measured on anterior and posterior wall of stomach. The mean values of these measurements were calculated and expressed as percent change from value recorded in the intact mucosa.
To establish the number and area of gastric lesions, computerized planimetry (Morphomat, Carl Zeiss, Berlin, Germany) was used. Results are expressed as mm.

[2] = system: WRS-induced gastric lesions; experiment: Water immersion and restraint stress (WRS)-induced gastric lesion model; format: in vivo, Male Wistar rats; conditions: indomethacin 5 mg/kg i.p., SC-560 5 mg/kg i.g. or rofecoxib 10 mg/kg i.g.; versus absence of inhibitor
Protocol: as §1, §2, §3
To establish the number and area of gastric lesions, computerized planimetry (Morphomat, Carl Zeiss, Berlin, Germany) was used. Results are expressed as mm. […]

COc1ccc(-n2nc(C(F)(F)F)cc2-c2ccc(Cl)cc2)cc1 [SC-560]
number of lesions after COX inhibitor pretreatment in the absence of 1-MNA [1]: increased the number of lesions | lesion numbers after COX inhibitor pretreatment before 1-MNA and WRS [2]: increase of lesion numbers
